Measured values reported in the supplement of paper PMC8256030.
Values joined by “and” are separate entries in the source; they are usually repeats but may differ in a detail not shown here. Equal values may be shown once. The list shows a part of the results. Single values are uncertain here, since repeats match poorly.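 HEK293T cells were given each compound shortly before transfection with a reporter in which red mCherry is followed by the SARS-CoV-2 frameshift element and then GFP in the −1 frame, so GFP appears only after frameshifting.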

system: SARS-CoV-2 -1 PRF reporter mCherry-FSE-GFP(-1); experiment: percent effect, decrease of GFP/mCherry ratio (-1 PRF reporter) relative to controls; higher = stronger frameshift inhibition; settings: 10 µM; 24 h; HEK293T

Q: With `CSCC[C@H](NC(=O)[C@H](Cc1c[nH]c2ccccc12)NC(=O)CCNC(=O)OC(C)(C)C)C(=O)N[C@@H](CC(=O)O)C(=O)N[C@@H](Cc1ccccc1)C(N)=O` as the compound, how does the percent effect read?
A: -1.62%

Q: Which percent effect does the source give for `Cc1c(-c2ccccc2)oc2c(C(=O)OCCN3CCCCC3)cccc2c1=O` [flavoxate] here?
A: 0.217%

Q: `CC1(C)S[C@@H]2[C@H](NC(=O)[C@H](N)c3ccccc3)C(=O)N2[C@H]1C(=O)OC1OC(=O)c2ccccc21` (stereo partly specified) [talampicillin] was tested. Which percent effect did it give?
A: -7.91%

Q: For `Nc1c2c(nc3ccccc13)CCCC2` [tacrine], which percent effect is on record?
A: -1.66%

Q: With `C/C=C(/C(=C/C)c1ccc(O)cc1)c1ccc(O)cc1` [dienestrol] as the compound, how does the percent effect read?
A: -7.83%

Q: Which percent effect does the source give for `C=C[C@@]1(C)CC(=O)[C@]2(O)[C@@]3(C)[C@@H](O)CCC(C)(C)[C@@H]3[C@H](O)[C@H](OC(C)=O)[C@@]2(C)O1` here?
A: 1.76%

Q: How did the percent effect turn out when `N[C@H]1CONC1=O` [levcycloserine] was run?
A: -3.71%

Q: How did the percent effect turn out when `COc1ncnc(NS(=O)(=O)c2ccc(N)cc2)c1OC` [sulfadoxine] was run?
A: 1.11% and 1.69%

Q: `CC(C)OC(=O)C(C(=O)OC(C)C)=C1SC=CS1` [malotilate] was tested. Which percent effect did it give?
A: -1.84%

Q: With `Cc1c(Nc2ncccc2C(=O)O)cccc1C(F)(F)F` as the compound, how does the percent effect read?
A: -3.77%

Q: `O=C(Nc1ccc([N+](=O)[O-])cc1Cl)c1cc(Cl)ccc1O` [niclosamide] was tested. Which percent effect did it give?
A: -2.92%

Q: For `Cc1cc(CC(C)CC(C)(C)C)n(O)c(=O)c1` (stereo unspecified), which percent effect is on record?
A: -8.22%

Q: For `Cc1cc(C2CCCCC2)n(O)c(=O)c1` [ciclopirox], which percent effect is on record?
A: -4.4% and -6.94%

Q: How did the percent effect turn out when `CCC1(C)OC(=O)N(C)C1=O` (stereo unspecified) [paramethadione] was run?
A: -0.792%

Q: For `CC(C)(C)NCC(O)COc1cccc2c1CCC(=O)N2` (stereo unspecified), which percent effect is on record?
A: -3.26%

Q: Which percent effect does the source give for `CN1CCc2nc(C(=O)N[C@@H]3C[C@@H](C(=O)N(C)C)CC[C@@H]3NC(=O)C(=O)Nc3ccc(Cl)cn3)sc2C1` [Edoxaban] here?
A: -2.84%

Q: `O=C(OCCOCCN1CCCCC1)N1c2ccccc2Sc2cccnc21` [pipazetate] was tested. Which percent effect did it give?
A: 3.76%

Q: Which percent effect does the source give for `CN(C)[C@@H]1C(=O)C(C(=O)NCNCCCC[C@H](N)C(=O)O)=C(O)[C@@]2(O)C(=O)C3=C(O)c4c(O)cccc4[C@@](C)(O)[C@H]3C[C@@H]12` [Lymecycline] here?
A: -1.09%

Q: For `NS(=O)(=O)c1ccc(-n2nc(C(F)(F)F)cc2-c2ccc(F)cc2)cc1` [mavacoxib], which percent effect is on record?
A: -1.81%

Q: With `NS(=O)(=O)c1cc2c(cc1Cl)N=C(CSCc1ccccc1)NS2(=O)=O` [benzthiazide] as the compound, how does the percent effect read?
A: -3.61%

Q: `NC1CCN(c2c(F)cc3c(=O)c(C(=O)O)cn(C4CC4)c3c2Cl)C1` (stereo unspecified) [Clinafloxacin] was tested. Which percent effect did it give?
A: -4.23%

Q: How did the percent effect turn out when `C[C@H]1O[C@H](O[C@H]2[C@H](O)[C@@H](O)[C@@H](O[C@@H]([C@H](O)[C@@H](O)C=O)[C@H](O)CO)O[C@@H]2CO)[C@H](O)[C@@H](O)[C@@H]1N[C@H]1C=C(CO)[C@@H](O)[C@H](O)[C@H]1O` [acarbose] was run?
A: -0.991% and -1.42%

Q: How did the percent effect turn out when `CO[C@H]1C[C@H](O[C@H]2[C@H](C)[C@@H](O[C@@H]3O[C@H](C)C[C@H](N(C)C)[C@H]3OC(C)=O)[C@@H](C)C[C@@]3(CO3)C(=O)[C@H](C)[C@@H](OC(C)=O)[C@@H](C)[C@@H](C)OC(=O)[C@@H]2C)O[C@@H](C)[C@@H]1OC(C)=O` [troleandomycin] was run?
A: 0.066%

Q: With `CC(=O)OCC(=O)[C@@]12N=C(C)O[C@@H]1C[C@H]1[C@@H]3CCC4=CC(=O)C=C[C@]4(C)[C@H]3[C@@H](O)C[C@@]12C` as the compound, how does the percent effect read?
A: 0.274%

Q: How did the percent effect turn out when `CC(=O)Oc1cc2c(s1)CCN(C(C(=O)C1CC1)c1ccccc1F)C2` (stereo unspecified) was run?
A: -2.5%

Q: With `CC(C)(Oc1ccc(Cl)cc1)C(=O)OCCNC(=O)c1cccnc1` [picafibrate] as the compound, how does the percent effect read?
A: -3.53%
